Experimental data published in article PMC11007818.
No constants are given. Whether binding was seen depends on the method and setting. In cells and extracts the contact can be indirect. Some entries that bind do so weakly or less than the wild type.

Sequences of proteins named here, by UniProt entry; tags and fusion partners are left off.
UniProt Q93009: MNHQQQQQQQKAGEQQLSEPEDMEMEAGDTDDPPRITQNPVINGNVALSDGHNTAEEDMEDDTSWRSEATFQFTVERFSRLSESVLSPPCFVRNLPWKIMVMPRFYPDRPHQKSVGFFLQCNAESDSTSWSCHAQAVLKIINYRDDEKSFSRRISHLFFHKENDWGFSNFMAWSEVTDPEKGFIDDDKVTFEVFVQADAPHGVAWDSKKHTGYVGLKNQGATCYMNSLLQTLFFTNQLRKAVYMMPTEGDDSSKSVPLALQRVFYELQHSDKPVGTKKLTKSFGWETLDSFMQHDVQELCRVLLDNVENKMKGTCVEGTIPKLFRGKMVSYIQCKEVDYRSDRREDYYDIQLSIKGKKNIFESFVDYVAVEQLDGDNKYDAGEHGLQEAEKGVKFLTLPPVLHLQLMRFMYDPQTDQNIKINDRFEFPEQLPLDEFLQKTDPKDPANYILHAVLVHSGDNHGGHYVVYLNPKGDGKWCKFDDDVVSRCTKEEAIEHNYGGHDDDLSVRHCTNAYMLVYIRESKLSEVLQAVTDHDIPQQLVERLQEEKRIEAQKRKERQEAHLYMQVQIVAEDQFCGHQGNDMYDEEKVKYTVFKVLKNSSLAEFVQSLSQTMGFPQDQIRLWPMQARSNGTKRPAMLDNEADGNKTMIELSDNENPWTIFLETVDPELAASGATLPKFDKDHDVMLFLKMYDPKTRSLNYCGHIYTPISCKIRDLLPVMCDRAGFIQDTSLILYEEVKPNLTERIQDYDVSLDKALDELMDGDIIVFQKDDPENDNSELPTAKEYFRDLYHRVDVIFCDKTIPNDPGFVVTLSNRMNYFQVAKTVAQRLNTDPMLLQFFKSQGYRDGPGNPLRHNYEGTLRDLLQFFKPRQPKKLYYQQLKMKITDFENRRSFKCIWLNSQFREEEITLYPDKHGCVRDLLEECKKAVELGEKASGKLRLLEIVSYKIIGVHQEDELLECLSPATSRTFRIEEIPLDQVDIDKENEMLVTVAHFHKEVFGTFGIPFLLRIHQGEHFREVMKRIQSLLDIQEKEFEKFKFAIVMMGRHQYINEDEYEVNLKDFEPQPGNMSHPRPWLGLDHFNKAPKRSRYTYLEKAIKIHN

Biological target: T1, Ubiquitin-like PHD and RING finger domain-containing protein 1 (human (endogenous in HDF)) (UniProt Q96T88)
T1 sequence: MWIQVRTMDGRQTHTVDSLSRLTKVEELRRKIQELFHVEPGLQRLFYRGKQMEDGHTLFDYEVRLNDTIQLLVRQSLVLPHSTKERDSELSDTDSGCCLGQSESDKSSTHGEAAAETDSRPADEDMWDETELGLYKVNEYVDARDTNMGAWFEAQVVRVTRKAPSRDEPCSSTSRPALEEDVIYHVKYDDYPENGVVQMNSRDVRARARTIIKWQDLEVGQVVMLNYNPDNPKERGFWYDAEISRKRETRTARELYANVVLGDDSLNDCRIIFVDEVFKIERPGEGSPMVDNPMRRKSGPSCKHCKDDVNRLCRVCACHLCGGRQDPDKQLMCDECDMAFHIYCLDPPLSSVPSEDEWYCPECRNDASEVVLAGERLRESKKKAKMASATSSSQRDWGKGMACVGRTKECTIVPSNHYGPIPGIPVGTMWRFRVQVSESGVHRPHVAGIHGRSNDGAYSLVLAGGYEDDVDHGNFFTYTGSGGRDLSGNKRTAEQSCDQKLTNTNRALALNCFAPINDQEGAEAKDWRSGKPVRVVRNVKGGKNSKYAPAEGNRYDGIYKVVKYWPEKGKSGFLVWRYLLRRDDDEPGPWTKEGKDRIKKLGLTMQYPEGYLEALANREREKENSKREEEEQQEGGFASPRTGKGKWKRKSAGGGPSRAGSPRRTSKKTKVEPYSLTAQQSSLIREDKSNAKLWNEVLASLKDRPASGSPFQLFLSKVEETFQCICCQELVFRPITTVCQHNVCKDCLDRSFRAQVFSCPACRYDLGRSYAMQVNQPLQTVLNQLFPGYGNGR
Experiment: co-IP; anti-UHRF1 antibody on Dynabeads Protein A, 0.5 mg pre-cleared lysate of HDFs kept in hypoxia and treated with MG132, AD-04 or DMSO; 10 min at room temperature, washed with TBS-T; blot with anti-USP7

binding: binds
Substance: ubiquitin specific protease 7 (from UniProt Q93009 1-1102) (enzyme)
